Laboratory results from publication PMC7334207, “Select amino acids in DGCR8 are essential for the UGU-pri-miRNA interaction and processing” (Communications Biology, 2020).
These are yes or no findings as the source states them, for the method shown. Binding seen in cells or lysates may run through a third protein. Some binding calls cover weakened binding; strength is not graded here. Where a sequence is shown, tags or fusion partners need not be part of it.

Experiments:
[1] = target: T1, protein G-tagged G478del–WT (human) (UniProt Q8WYQ5); experiment: pull-down; tandem affinity purification from E. coli co-expressing both subunits: Ni2+-agarose (captures the 10×His-tagged mut1), then IgG–sepharose (captures the protein G-tagged WT), release with human Rhinovirus 3C protease at 4 °C overnight, then S-cation exchange column
T1 sequence: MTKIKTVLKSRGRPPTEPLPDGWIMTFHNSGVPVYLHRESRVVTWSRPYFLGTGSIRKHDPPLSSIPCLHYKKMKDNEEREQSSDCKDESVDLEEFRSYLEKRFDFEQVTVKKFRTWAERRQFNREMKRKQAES

[2] = target: T2, protein G-tagged G4–WT (human) (UniProt Q8WYQ5); experiment: as above
T2 sequence: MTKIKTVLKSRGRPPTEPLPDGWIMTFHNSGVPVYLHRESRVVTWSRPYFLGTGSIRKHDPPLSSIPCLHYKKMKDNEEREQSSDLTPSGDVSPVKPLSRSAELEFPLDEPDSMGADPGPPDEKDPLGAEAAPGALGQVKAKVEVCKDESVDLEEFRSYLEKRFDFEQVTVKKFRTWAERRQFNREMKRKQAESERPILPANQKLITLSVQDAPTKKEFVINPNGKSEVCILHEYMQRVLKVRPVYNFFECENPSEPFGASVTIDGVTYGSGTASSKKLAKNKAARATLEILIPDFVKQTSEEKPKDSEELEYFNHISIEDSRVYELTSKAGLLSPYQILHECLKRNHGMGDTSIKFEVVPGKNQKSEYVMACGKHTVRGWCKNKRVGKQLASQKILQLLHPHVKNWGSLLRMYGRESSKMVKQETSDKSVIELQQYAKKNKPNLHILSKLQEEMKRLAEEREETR

B1: G478del-mut1, G478del with AGQ in the 461–463 region instead of WAE (domain or fragment, human, UniProt Q8WYQ5 285-478, looked up)
chain: MTKIKTVLKSRGRPPTEPLPDGWIMTFHNSGVPVYLHRESRVVTWSRPYFLGTGSIRKHDPPLSSIPCLHYKKMKDNEEREQSSDCKDESVDLEEFRSYLEKRFDFEQVTVKKFRTAGQRRQFNREMKRKQAES
notes: Associated with hemin; source: E. coli, purified (as described for G478del)
Question: Which binding [1] does the source give for B1 here?
Answer: binds

B2: 10×His-tagged G4–mut1 (domain or fragment, UniProt Q8WYQ5 285-750)
chain: MTKIKTVLKSRGRPPTEPLPDGWIMTFHNSGVPVYLHRESRVVTWSRPYFLGTGSIRKHDPPLSSIPCLHYKKMKDNEEREQSSDLTPSGDVSPVKPLSRSAELEFPLDEPDSMGADPGPPDEKDPLGAEAAPGALGQVKAKVEVCKDESVDLEEFRSYLEKRFDFEQVTVKKFRTAGQRRQFNREMKRKQAESERPILPANQKLITLSVQDAPTKKEFVINPNGKSEVCILHEYMQRVLKVRPVYNFFECENPSEPFGASVTIDGVTYGSGTASSKKLAKNKAARATLEILIPDFVKQTSEEKPKDSEELEYFNHISIEDSRVYELTSKAGLLSPYQILHECLKRNHGMGDTSIKFEVVPGKNQKSEYVMACGKHTVRGWCKNKRVGKQLASQKILQLLHPHVKNWGSLLRMYGRESSKMVKQETSDKSVIELQQYAKKNKPNLHILSKLQEEMKRLAEEREETR
Question: With B2 as the binder, how does the binding [2] read?
Answer: binds
